Data: PubChem BioAssay AID624291 (National Center for Advancing Translational Sciences (NCATS), 2012)
Screen size: about 350,000 compounds; about 220 (0.063%) were called active. Inconclusive results, whose numbers are uncertain, are shown with a selection of clear calls. Calls follow the shape of the dose curve; as a rule, active = well fitted activation curve with a large enough effect; inconclusive = small, poorly fitted or top-dose-only effect; inactive = no such curve, though single readings can be large or run the other way. A potency beside an inconclusive call is a rough fit, not a confirmed value.
Potency is read from the fitted curve at half-maximal effect.

Test: qHTS for Activators of Integrin-Mediated Alleviation for Muscular Dystrophy; also: nearly all actives have a fitted effect of over 60% in size;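 as to activation: 100% = response of the positive control SU9516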
Details: alpha7betagal myoblasts, beta-gal FDG fluorescence, 48 h; activation: at 38.3 µM (top of the series)
In short: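 alpha7betagal+/- myoblasts (passage 13, 250/well) treated 48 h at 37C with compounds at 1:260 dilution of DMSO stock. Lysed, then beta-galactosidase activity read as FDG fluorescence (ex 480/em 540) after 30 min, with pre-read for autofluorescence.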
For `COc1cc(NC(=S)Nc2ncccc2C)cc(OC)c1OC`, the Potency was inconclusive: 3.16 µM [activator, single point]. For `C=CCSc1nc2[nH]ncc2c(=O)[nH]1`, the Potency was inconclusive: 11.2 µM [activator, partial curve, poor fit]. For `COc1cc(CO)ccc1OCC(=O)Nc1ccc(Br)cc1`, the Potency was inconclusive: 10 µM [activator, partial curve, poor fit]. In the case of `Cc1cc(C)c(C#N)c(SCC(=O)Nc2c(C)n(C)n(-c3ccccc3)c2=O)n1`, the Potency is reported as inconclusive: 2.82 µM [activator, full curve, poor fit]. With `COCCCNC(=O)C(=O)C1C(=O)Nc2ccccc21` (configuration not stated) the Potency was inconclusive: 5.01 µM [activator, single point]. With `Cc1nc2ccc([N+](=O)[O-])cc2c(=O)n1Cc1ccccc1Br` the “activation” value was inactive: -4.53%. In the case of `O=C(Cc1cnn(-c2ccccc2)c1)c1ccc(O)c(O)c1O`, the “activation” value is reported as inactive: -22.2%. For `Cc1c(-c2n[nH]c(=S)n2-c2ccc(Br)cc2)nnn1-c1ccc(Cl)cc1`, the Potency was inconclusive: 28.2 µM [activator, single point]. In the case of `O=C(NC(=S)Nc1cccc2cnccc12)c1ccccc1`, the Potency is reported as inconclusive: 5.01 µM [activator, single point]. For `Cc1c(C(=O)N2CCOCC2)c(S(=O)(=O)Nc2cccc(Br)c2)c(C)n1C`, the Potency was inconclusive: 22.4 µM [activator, single point]. With `CCN(CC)S(=O)(=O)c1cccc(C(=O)OCC(=O)c2ccc3c(c2)OCCO3)c1` the Potency was inconclusive: 28.2 µM [activator, single point]. In the case of `C/C(CCC1CC(C)(C)OC1=O)=N\NC(N)=S` (configuration not stated), the Potency is reported as inconclusive: 10 µM [activator, partial curve, poor fit]. In the case of `CC1CCCN(CCOc2ccc(Br)cc2)C1` (configuration not stated), the “activation” value is reported as inactive: 9.35%. In the case of `Cc1ccc(-c2nn(-c3ccccc3)cc2/C=C/C(=O)O)o1`, the Potency is reported as inconclusive: 12.6 µM [activator, partial curve, poor fit]. In the case of `NC(=O)c1cccn1-c1ncc(C(F)(F)F)cc1Cl`, the Potency is reported as inconclusive: 5.01 µM [activator, single point]. In the case of `CCC1(c2ccccc2)NC(=O)N(CC(=O)NCc2ccc(C)cc2)C1=O` (configuration not stated), the Potency is reported as inconclusive: 12.6 µM [activator, partial curve, poor fit]. In the case of `O=C(c1ccccc1Cl)N(C(=O)c1ccccc1Cl)c1nccc(-c2cccs2)n1`, the Potency is reported as inconclusive: 5.01 µM [activator, partial curve, poor fit]. In the case of `Fc1cccc(NC(=S)N2CCCCC2)c1`, the “activation” value is reported as inactive: -19.2%. With `Cc1ccc(NC(=O)COc2cccc3ccccc23)c(O)c1` the Potency was inconclusive: 5.62 µM [activator, partial curve, poor fit]. For `COCCN(CC(=O)Nc1cccc(C)c1C)C(=O)C1CCN(S(=O)(=O)c2ccccc2)CC1`, the Potency was inconclusive: 11.2 µM [activator, partial curve]. In the case of `C=CCNC(=O)COC(=O)c1ccc(Cl)c(S(N)(=O)=O)c1`, the Potency is reported as inconclusive: 11.2 µM [activator, partial curve, poor fit]. With `O=C1c2ccccc2C(=O)N1CCOc1ccccc1Cl` the Potency was inconclusive: 2.82 µM [activator, full curve, poor fit]. In the case of `O=C(N/N=C/c1ccccc1)c1cccc2ccccc12`, the Potency is reported as inconclusive: 5.01 µM [activator, single point]. For `CCOC(=O)N1CCN(C(=O)C(NS(=O)(=O)c2cccc3nsnc23)c2ccccc2)CC1` (configuration not stated), the Potency was inconclusive: 10 µM [activator, partial curve, poor fit]. For `COCc1nnc(NC(=O)c2ccc(OC)cc2OC)s1`, the Potency was inconclusive: 1.78 µM [activator, single point]. For `CCc1c(C)sc(NC(=O)c2ccco2)c1C#N`, the Potency was inconclusive: 6.31 µM [activator, full curve, poor fit]. For `C/C(O)=C\c1nc2ccccc2oc1=O`, the “activation” value was inactive: -33.1%. With `O=C1NC(Nc2nccs2)(C(F)(F)F)C(=O)N1CCc1ccccc1` (configuration not stated) the “activation” value was inactive: -5.28%. In the case of `O=c1c2ccccc2cnn1Cc1ccc(Cl)c(Cl)c1`, the Potency is reported as inconclusive: 2 µM [activator, single point]. In the case of `CC(NS(=O)(=O)c1ccc(F)cc1)C(=O)Nc1ccc2c(c1)OCCO2` (configuration not stated), the “activation” value is reported as inactive: 0%. With `Cc1nc2c(-c3ccc(F)cc3)c(C)nn2c(C)c1CCC(=O)NC(C)CCc1ccco1` (configuration not stated) the “activation” value was inactive: -10.6%. In the case of `COc1ccc(Cl)cc1NC(=O)c1cc(-c2cc(C)ccc2O)n[nH]1`, the Potency is reported as inconclusive: 3.55 µM [activator, partial curve]. With `CCOc1ccc2nc(SCC(=O)NC3CCCc4ccccc43)sc2c1` (configuration not stated) the Potency was inconclusive: 28.2 µM [activator, single point]. For `CC(C)(C)c1cccc(C2(O)C(=O)c3ccccc3C2=O)c1O`, the Potency was inconclusive: 1.58 µM [activator, partial curve, poor fit]. With `COc1ccccc1NC(=O)/C=C1\SCC(=O)N1C` the Potency was inconclusive: 11.2 µM [activator, partial curve, poor fit]. In the case of `COc1cc(CNS(=O)(=O)c2ccc3c(c2)CC(C)N3C(C)=O)cc(OC)c1OC` (configuration not stated), the Potency is reported as inconclusive: 28.2 µM [activator, single point]. In the case of `COc1cc2c(cc1OC)CN(C(=O)C1CCC(=O)N(CCCN3CCOCC3)C1)CC2` (configuration not stated), the Potency is reported as inconclusive: 3.16 µM [activator, partial curve, poor fit]. In the case of `O=C(CN1CCN(c2ccccc2F)CC1)c1ccc2cc[nH]c2c1`, the “activation” value is reported as inactive: -5.72%. In the case of `Cc1ccnn1-c1ccc(C(=O)OCC(=O)Nc2ccc(F)cc2)cc1`, the Potency is reported as inconclusive: 2.24 µM [activator, full curve, poor fit]. With `NC(=O)C1(C(=O)O)OC1(c1ccc(Cl)cc1)c1ccccc1Cl` (configuration not stated) the Potency was inconclusive: 1.41 µM [activator, single point]. For `O=C(O)Cn1c(=O)c2c3c(sc2n(Cc2ccccc2F)c1=O)CCCC3`, the Potency was inconclusive: 28.2 µM [activator, partial curve, poor fit]. With `O=C(Cc1ccc(Cl)cc1)NNC1CC(=O)N(c2ccc3ccccc3c2)C1=O` (configuration not stated) the Potency was inconclusive: 2.24 µM [activator, partial curve, poor fit]. In the case of `COC(=O)c1ccc(NC(=O)COc2ccc3c(c2)OCO3)cc1`, the Potency is reported as inconclusive: 31.6 µM [activator, partial curve, poor fit]. In the case of `COC(=O)C(Cc1c[nH]c2ccccc12)NC(=O)c1cncc(Br)c1` (configuration not stated), the Potency is reported as inconclusive: 5.01 µM [activator, single point]. For `N=c1oc2ccc([N+](=O)[O-])cc2cc1C(=O)NCc1ccccc1`, the Potency was inconclusive: 3.55 µM [activator, single point]. With `Nc1nn(-c2ccccc2)c(N)c1N=Nc1ccc2c(c1)OCO2` the Potency was inconclusive: 11.2 µM [activator, single point]. In the case of `Cc1ccnc(NC(=O)c2cc3cc(F)ccc3s2)c1`, the Potency is reported as inconclusive: 3.16 µM [activator, full curve, poor fit]. In the case of `CCS(=O)(=O)N1Cc2ccccc2CC1C(=O)Nc1ccccc1OC` (configuration not stated), the Potency is reported as inconclusive: 2.82 µM [activator, single point]. With `Cc1cc(C)nc(SCc2nc3nc(C)cc(C)n3c2Br)n1` the “activation” value was inactive: -30.2%. For `CCc1ccc(NC(=S)N2CCN(S(=O)(=O)c3ccccc3)CC2)cc1`, the Potency was inconclusive: 12.6 µM [activator, single point]. With `CSc1ncccc1C(=O)Nc1nc2ccc(Oc3ccccc3)cc2s1` the Potency was inconclusive: 28.2 µM [activator, single point]. For `COc1ccc(S(=O)(=O)N2CCN(c3nc(C)cc(C)n3)CC2)cc1`, the “activation” value was inactive: -37.8%. For `C=CCN1C(=O)C(CC(=O)O)SC1=Nc1cccc([N+](=O)[O-])c1` (configuration not stated), the Potency was inconclusive: 3.16 µM [activator, partial curve, poor fit]. For `CNC(=O)/C(C#N)=c1\s/c(=C/C(=O)OC)c(=O)n1-c1ccccc1`, the “activation” value was inactive: 15.9%. With `COc1cccc(C(=O)Nc2nnc(S(=O)(=O)N(C)Cc3ccccc3)s2)c1` the Potency was inconclusive: 5.01 µM [activator, single point]. With `Nc1c(S(=O)(=O)c2ccccc2)c2nc3ccccc3nc2n1/N=C/c1ccco1` the “activation” value was inactive: -6.8%. For `O=C(CCl)N1CCN(S(=O)(=O)Cc2ccccc2)CC1`, the activation was inconclusive: -71.4% [activator]. For `COc1ccc(S(=O)(=O)Nc2cccnc2)cc1`, the Potency was inconclusive: 5.01 µM [activator, single point]. In the case of `Cc1ccc(N(CC(=O)NCc2ccc(F)cc2)C(=O)c2ccco2)cc1C`, the “activation” value is reported as inactive: 4.1%. For `CCc1nnc(NC(=O)C=C(C)C)s1`, the “activation” value was inactive: 30.7%. For `O=C(Nc1nc2ccsc2c(=O)s1)c1ccc(Cl)cc1`, the Potency was inconclusive: 28.2 µM [activator, single point]. For `O=C(O)CCCN1C(=O)c2ccccc2Sc2ncccc21`, the Potency was inconclusive: 31.6 µM [activator, single point]. In the case of `COc1ccc(-n2cnc3c(sc4nccc(N(C)C)c43)c2=O)cc1`, the Potency is reported as inconclusive: 31.6 µM [activator, single point]. In the case of `Cc1cnc(C(=O)N2CCc3c([nH]c4ccccc34)C2c2ccc(F)cc2)cn1` (configuration not stated), the “activation” value is reported as inactive: -7.41%. With `CN1CCN(S(=O)(=O)c2cccc(C(=O)Nc3ccccc3N3CCOCC3)c2)CC1` the Potency was inconclusive: 0.447 µM [activator, partial curve, poor fit]. With `COc1ccc(CCc2nnc(CCC(=O)NCc3cnn(-c4ccccc4C)c3)o2)cc1` the Potency was inconclusive: 2.82 µM [activator, single point]. For `COc1ccc(CCN(C)C/C=C/c2ccccc2)cc1OC`, the Potency was inconclusive: 2.82 µM [activator, single point].
